In the supplement of paper PMC8612539:
≈ marks a conversion by molar mass, not a printed value. Further values from the same series stand in other lists.

Tested on: Escherichia coli
Test: minimum inhibitory concentration (MIC)
Experimental: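 Broth microdilution MIC (Sensititre BOPO7F bovine plate, CLSI methods) of 19 antimicrobials against field isolates of P. multocida, M. haemolytica, H. somni (deep nasopharyngeal swabs) and E. coli, Enterococcus spp. (rectal swabs) from weaned dairy heifers. Incubation 16-24 h at 35 C. MIC is the lowest concentration preventing visible growth. Values with <= or > lie at the tested range limits. Trimethoprim-sulfamethoxazole is given as the trimethoprim component of a 1:19 mixture.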

CCCN1C[C@H](C)[C@@H](O)[C@](C)(O)[C@@H](CC)OC(=O)[C@H](C)[C@@H](O[C@H]2C[C@@](C)(OC)[C@@H](O)[C@H](C)O2)[C@H](C)[C@@H](O[C@@H]2O[C@H](C)C[C@H](N(C)C)[C@H]2O)[C@](C)(O)C[C@H]1C [Gamithromycin]
Settings	minimum inhibitory concentration [µg/mL]
isolate (source animal id): 221	8 (≈ 10.3 µM)
isolate (source animal id): 222	8 (≈ 10.3 µM)
isolate (source animal id): 223	8 (≈ 10.3 µM)
isolate (source animal id): 224	8 (≈ 10.3 µM)
isolate (source animal id): 225	8 (≈ 10.3 µM)
isolate (source animal id): 226	8 (≈ 10.3 µM)
isolate (source animal id): 227	2 (≈ 2.57 µM)
isolate (source animal id): 228	2 (≈ 2.57 µM)
isolate (source animal id): 229	> 8
isolate (source animal id): 230	8 (≈ 10.3 µM)
isolate (source animal id): 231	8 (≈ 10.3 µM)
isolate (source animal id): 232	8 (≈ 10.3 µM)
isolate (source animal id): 233	2 (≈ 2.57 µM)
isolate (source animal id): 234	8 (≈ 10.3 µM)
isolate (source animal id): 235	4 (≈ 5.15 µM)
isolate (source animal id): 236	8 (≈ 10.3 µM)
isolate (source animal id): 237	8 (≈ 10.3 µM)
isolate (source animal id): 238	4 (≈ 5.15 µM)
isolate (source animal id): 239	4 (≈ 5.15 µM)
isolate (source animal id): 240	8 (≈ 10.3 µM)
isolate (source animal id): 241	8 (≈ 10.3 µM)
isolate (source animal id): 242	4 (≈ 5.15 µM)
isolate (source animal id): 243	8 (≈ 10.3 µM)
isolate (source animal id): 244	> 8
isolate (source animal id): 245	8 (≈ 10.3 µM)
isolate (source animal id): 246	8 (≈ 10.3 µM)
isolate (source animal id): 247	2 (≈ 2.57 µM)
isolate (source animal id): 248	8 (≈ 10.3 µM)
isolate (source animal id): 249	8 (≈ 10.3 µM)
isolate (source animal id): 250	8 (≈ 10.3 µM)
isolate (source animal id): 251	8 (≈ 10.3 µM)
isolate (source animal id): 252	8 (≈ 10.3 µM)
isolate (source animal id): 253	8 (≈ 10.3 µM)
isolate (source animal id): 254	8 (≈ 10.3 µM)
isolate (source animal id): 255	8 (≈ 10.3 µM)
isolate (source animal id): 256	8 (≈ 10.3 µM)
isolate (source animal id): 257	8 (≈ 10.3 µM)
isolate (source animal id): 258	> 8
isolate (source animal id): 259	8 (≈ 10.3 µM)
isolate (source animal id): 260	8 (≈ 10.3 µM)
isolate (source animal id): 261	8 (≈ 10.3 µM)
isolate (source animal id): 262	8 (≈ 10.3 µM)
isolate (source animal id): 263	8 (≈ 10.3 µM)
isolate (source animal id): 264	8 (≈ 10.3 µM)
isolate (source animal id): 265	8 (≈ 10.3 µM)
isolate (source animal id): 266	4 (≈ 5.15 µM)
isolate (source animal id): 267	2 (≈ 2.57 µM)
isolate (source animal id): 268	8 (≈ 10.3 µM)
isolate (source animal id): 269	8 (≈ 10.3 µM)
isolate (source animal id): 270	8 (≈ 10.3 µM)
isolate (source animal id): 271	2 (≈ 2.57 µM)
isolate (source animal id): 272	8 (≈ 10.3 µM)
isolate (source animal id): 273	8 (≈ 10.3 µM)
isolate (source animal id): 274	8 (≈ 10.3 µM)
isolate (source animal id): 275	4 (≈ 5.15 µM)
isolate (source animal id): 276	8 (≈ 10.3 µM)
isolate (source animal id): 277	8 (≈ 10.3 µM)
isolate (source animal id): 278	8 (≈ 10.3 µM)
isolate (source animal id): 279	8 (≈ 10.3 µM)
isolate (source animal id): 280	8 (≈ 10.3 µM)
isolate (source animal id): 281	8 (≈ 10.3 µM)
isolate (source animal id): 282	8 (≈ 10.3 µM)
isolate (source animal id): 283	8 (≈ 10.3 µM)
isolate (source animal id): 284	8 (≈ 10.3 µM)
isolate (source animal id): 285	4 (≈ 5.15 µM)
isolate (source animal id): 286	8 (≈ 10.3 µM)
isolate (source animal id): 287	8 (≈ 10.3 µM)
isolate (source animal id): 288	> 8
isolate (source animal id): 289	4 (≈ 5.15 µM)
isolate (source animal id): 290	8 (≈ 10.3 µM)
isolate (source animal id): 291	8 (≈ 10.3 µM)
isolate (source animal id): 292	8 (≈ 10.3 µM)
isolate (source animal id): 293	8 (≈ 10.3 µM)
isolate (source animal id): 294	2 (≈ 2.57 µM)
isolate (source animal id): 295	8 (≈ 10.3 µM)
isolate (source animal id): 296	8 (≈ 10.3 µM)
isolate (source animal id): 297	4 (≈ 5.15 µM)
isolate (source animal id): 298	8 (≈ 10.3 µM)
isolate (source animal id): 299	8 (≈ 10.3 µM)
isolate (source animal id): 300	4 (≈ 5.15 µM)
isolate (source animal id): 301	8 (≈ 10.3 µM)
isolate (source animal id): 302	4 (≈ 5.15 µM)
isolate (source animal id): 303	8 (≈ 10.3 µM)
isolate (source animal id): 304	8 (≈ 10.3 µM)
isolate (source animal id): 305	8 (≈ 10.3 µM)
isolate (source animal id): 306	8 (≈ 10.3 µM)
isolate (source animal id): 307	8 (≈ 10.3 µM)
isolate (source animal id): 308	8 (≈ 10.3 µM)
isolate (source animal id): 309	8 (≈ 10.3 µM)
isolate (source animal id): 310	8 (≈ 10.3 µM)
isolate (source animal id): 311	4 (≈ 5.15 µM)
isolate (source animal id): 312	4 (≈ 5.15 µM)
isolate (source animal id): 313	8 (≈ 10.3 µM)
isolate (source animal id): 314	4 (≈ 5.15 µM)
isolate (source animal id): 315	8 (≈ 10.3 µM)
isolate (source animal id): 316	> 8
isolate (source animal id): 317	> 8
isolate (source animal id): 318	4 (≈ 5.15 µM)
isolate (source animal id): 319	4 (≈ 5.15 µM)
isolate (source animal id): 320	8 (≈ 10.3 µM)
isolate (source animal id): 321	> 8
isolate (source animal id): 322	8 (≈ 10.3 µM)
isolate (source animal id): 323	> 8
isolate (source animal id): 324	8 (≈ 10.3 µM)
isolate (source animal id): 325	> 8
isolate (source animal id): 326	4 (≈ 5.15 µM)
isolate (source animal id): 327	4 (≈ 5.15 µM)
isolate (source animal id): 328	8 (≈ 10.3 µM)
isolate (source animal id): 329	8 (≈ 10.3 µM)
isolate (source animal id): 330	8 (≈ 10.3 µM)
isolate (source animal id): 331	4 (≈ 5.15 µM)
isolate (source animal id): 332	8 (≈ 10.3 µM)
isolate (source animal id): 333	8 (≈ 10.3 µM)
isolate (source animal id): 334	> 8
isolate (source animal id): 335	8 (≈ 10.3 µM)
isolate (source animal id): 336	> 8
isolate (source animal id): 337	4 (≈ 5.15 µM)
isolate (source animal id): 338	> 8
isolate (source animal id): 339	4 (≈ 5.15 µM)
isolate (source animal id): 340	> 8
isolate (source animal id): 341	4 (≈ 5.15 µM)
